In assay [1] the target is T1, PPM1B (as used in the co-immunoprecipitation with USP46) (UniProt O75688).
T1 sequence: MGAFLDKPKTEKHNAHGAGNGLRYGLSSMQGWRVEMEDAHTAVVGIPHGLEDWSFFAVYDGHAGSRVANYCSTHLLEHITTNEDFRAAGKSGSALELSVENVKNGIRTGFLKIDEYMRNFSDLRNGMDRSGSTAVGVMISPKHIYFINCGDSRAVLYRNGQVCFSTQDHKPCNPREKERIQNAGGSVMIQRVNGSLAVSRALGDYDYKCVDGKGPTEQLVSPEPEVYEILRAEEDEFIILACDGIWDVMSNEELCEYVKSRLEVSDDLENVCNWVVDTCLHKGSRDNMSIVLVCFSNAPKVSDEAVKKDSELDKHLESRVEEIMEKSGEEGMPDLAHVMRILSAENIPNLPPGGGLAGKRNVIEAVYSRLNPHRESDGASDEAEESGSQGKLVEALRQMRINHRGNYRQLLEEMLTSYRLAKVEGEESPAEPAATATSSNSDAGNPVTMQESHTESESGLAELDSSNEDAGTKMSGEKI
Description: co-IP; USP46 with PPM1B (Supplementary Fig. 3f); cells, tags and antibodies not given.

Protein sequences, listed by entry. Tags and fused reporters are not part of them.
UniProt O75317: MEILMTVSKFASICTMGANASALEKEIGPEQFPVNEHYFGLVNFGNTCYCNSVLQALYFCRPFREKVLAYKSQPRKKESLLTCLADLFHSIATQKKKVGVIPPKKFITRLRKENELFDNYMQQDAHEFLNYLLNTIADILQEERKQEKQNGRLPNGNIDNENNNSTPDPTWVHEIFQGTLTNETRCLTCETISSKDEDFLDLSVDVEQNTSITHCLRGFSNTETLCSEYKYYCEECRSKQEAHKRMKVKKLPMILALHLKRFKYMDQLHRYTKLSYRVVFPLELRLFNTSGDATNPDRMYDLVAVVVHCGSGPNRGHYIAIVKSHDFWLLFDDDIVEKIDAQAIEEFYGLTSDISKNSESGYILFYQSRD
UniProt P62068: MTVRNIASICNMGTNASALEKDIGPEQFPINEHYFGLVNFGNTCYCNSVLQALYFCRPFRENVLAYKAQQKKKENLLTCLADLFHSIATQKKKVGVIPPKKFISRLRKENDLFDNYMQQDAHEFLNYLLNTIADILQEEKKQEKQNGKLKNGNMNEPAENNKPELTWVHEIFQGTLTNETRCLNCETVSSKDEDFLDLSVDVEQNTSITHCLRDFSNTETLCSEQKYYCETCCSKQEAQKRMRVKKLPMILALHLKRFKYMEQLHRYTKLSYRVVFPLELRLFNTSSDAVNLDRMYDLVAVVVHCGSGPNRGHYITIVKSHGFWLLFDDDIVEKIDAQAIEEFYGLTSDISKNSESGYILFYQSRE

Assay [2] addresses 3×Flag-tagged human USP12 (human) (UniProt O75317). Description: co-IP; lysates of cells with or without USP12-Flag (Western and IP lysis buffer) immunoprecipitated with antibody and Protein G-agarose overnight; endogenous PPM1B detected by immunoblotting. Background: Immunoblotting shows a protein as a band on a membrane.

These are yes or no findings as the source states them, for the method shown. In cells and extracts the contact can be indirect. Some binding calls cover weakened binding; strength is not graded here.

Take “3×Flag-tagged human USP46 (from UniProt P62068 1-366) (enzyme)”: the binding entry in assay [1] is listed as “binds”.

B1: endogenous PPM1B (enzyme, UniProt O75688 1-479)
chain: MGAFLDKPKTEKHNAHGAGNGLRYGLSSMQGWRVEMEDAHTAVVGIPHGLEDWSFFAVYDGHAGSRVANYCSTHLLEHITTNEDFRAAGKSGSALELSVENVKNGIRTGFLKIDEYMRNFSDLRNGMDRSGSTAVGVMISPKHIYFINCGDSRAVLYRNGQVCFSTQDHKPCNPREKERIQNAGGSVMIQRVNGSLAVSRALGDYDYKCVDGKGPTEQLVSPEPEVYEILRAEEDEFIILACDGIWDVMSNEELCEYVKSRLEVSDDLENVCNWVVDTCLHKGSRDNMSIVLVCFSNAPKVSDEAVKKDSELDKHLESRVEEIMEKSGEEGMPDLAHVMRILSAENIPNLPPGGGLAGKRNVIEAVYSRLNPHRESDGASDEAEESGSQGKLVEALRQMRINHRGNYRQLLEEMLTSYRLAKVEGEESPAEPAATATSSNSDAGNPVTMQESHTESESGLAELDSSNEDAGTKMSGEKI
Consider B1, for which the binding entry in assay [2] is recorded as “binds”.

The record behind these values is paper PMC8357983.
